# ± gives the standard deviation. This is a selection; strong and weak results do not stand in their true shares. The uncertainty is large for many entries.
# Test system: MILI (PIWIL2) piRISC loaded with piRNA #1 (26 nt)
# Experiment: pre-steady-state target cleavage rate (min^-1); MIWI and MILI are mouse PIWI proteins and EfPiwi is from a freshwater sponge; tags in brackets are library labels; higher = faster piRNA-guided slicing of the target
# Details: guide: piRNA #1 5'p-UGAGGUAGUAGGUUGUAUAGUAUCCA; auxiliary factor: 500 nM mouse GTSF1
# Outline: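 In Cleave-'n-Seq, a transcribed, DNA-blocked target RNA library (0.1 nM) was combined with 1 nM active affinity-purified piRISC bearing one synthetic guide, with or without 500 nM GTSF1 partner protein. Reactions ran in HEPES–potassium acetate buffer at 33 °C for 0–8 or 0–960 min. Uncleaved targets were sequenced and normalised to depth and to weakly complementary targets, three trials were pooled, and k3 was capped at 0.0001 min^-1. The pre-steady-state cleavage rate was obtained by fitting a burst-and-steady-state model.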
row,Sequence,pre-steady-state target cleavage rate
1,GGAGACCUAUGAUAUGUACCUACUAACCUCA,0.00019 ± 0.01
2,GGAGACCUAUGAUAACAACCUAGUACCACA,0.000222 ± 0.016
3,GGAGAGGAUACUAUACAUCCUACUACCUCA,0.28 ± 0.023
4,GGAGACCUAUGAAUACAACCUACUUCGUCA,0.00141 ± 0.0038
5,GGAGACCUAUGAUAUGAACCUACUACCUCU [g2:g14:cont:t1U],0.000352 ± 0.0081
6,GGAGACCUUACUAUACAUCCUACUACCACA,0.246 ± 0.02
7,GGAGAGGAUACUAUACAUCCUACUAGCUCA,0.0023 ± 0.0045
8,GGAGACCUAUGAUAUGUAGCAACUACCUCA,0.000133 ± 0.015
9,GGAGACCUAACUAUACAACCUACUCCCUCA,0.0941 ± 0.022
10,GGAGACCUAUGAAUACAACCUACUUGGAGA [g7:g18:cont:t1A],0.000173 ± 0.017
11,GGAGACCAUACUAUACAACCAACUAGCUCA,0.00107 ± 0.005
12,GGAGACCUAUGAUUACCAACCUACUACCUCA,0.00284 ± 0.0029
13,GGAGACCUAUGAUAUGUACCUACUCACCUCA,0.000436 ± 0.015
14,GGAGACCUAUGAUAUCCACCUACUACCUCA,0.00138 ± 0.0056
15,GGAGUGGAUACUAUACAACCUACUACCUGA,0.0915 ± 0.011
16,GGAGACCUAUGAUUACAACUACUACCUCA,0.000894 ± 0.0058
17,GGAGACCUAUGUAUACAACCUUCUUCCUCA,0.00226 ± 0.0033
18,GGAGAGGAAACUAUACAACCUACUUCCUCA,0.00168 ± 0.012
19,GGAGUGGAUACUAUACAACCUACCUACCUCA,0.128 ± 0.0098
20,GGAGAGCGAUACUAUACAACCUACUACCUCA,0.249 ± 0.02

row,Sequence,pre-steady-state target cleavage rate
1,GGAGAGGAUAGUAUACAAGCUACUACCUCA,0.00302 ± 0.0046
2,GGAGUGGAUACUAUACAACCUGACUACCUCA,0.00175 ± 0.0037
3,GGAGACGAUACUAUACUACCUACAACCUCA,0.181 ± 0.017
4,GGAGACCUAACUAUACAACGAUCUACCUCA,0.000107 ± 0.058
5,GGAGAGGAUACAAAACAACCUACUACCUCA,0.128 ± 0.013
6,GGAGACCUAUCUAUACAACCUUCUAGCUCA,0.00247 ± 0.0038
7,GGAGACCUAUCUAAACAACCUACUUCCUCA,0.0303 ± 0.0063
8,GGAGAGGAUACUAUACAUCCUUCUACCUCA,0.0216 ± 0.0041
9,GGAGUGCAUACUAUACAACCUAGUACCUCA,0.0477 ± 0.0091
10,GGAGACCUAUGUAUACAACCUACGACCUCA,0.0402 ± 0.0075
11,GGAGAGCAUACUAAACAACCUACUACCUCA,0.158 ± 0.015
12,GGAGACCUAUGAAUACAACCUACUAGGAGA [g6:g18:cont:t1A],0.000307 ± 0.022
13,GGAGACCUAACAUAUACAACCUACUACCUCA,0.026 ± 0.012
14,GGAGACCUAUGAAAUGAACCUACUACCUCA,0.000314 ± 0.0091
15,GGAGUGGAUACUAUACAACCUACUUGCUCA,0.00138 ± 0.0041
16,GGAGAGGUUACUAUACAACCUAGUACCUCA,0.00117 ± 0.007
17,GGAGACCUAACUAUACAACCUACUUCCUGA,0.0081 ± 0.0069
18,GGAGACCUAUCUAUACAAGCUACUACCUCA,0.193 ± 0.017
19,GGAGACCUAUGUAUACAACGUUCUACCUCA,0.00392 ± 0.0018
20,GGAGUGGAUACAAUACAACCUACAACCUCA,0.0772 ± 0.01

# A portion of the results above, for reference:
row,Sequence,pre-steady-state target cleavage rate
12,GGAGACCUAUGAUUACCAACCUACUACCUCA,0.00284 ± 0.0029
13,GGAGACCUAUGAUAUGUACCUACUCACCUCA,0.000436 ± 0.015
14,GGAGACCUAUGAUAUCCACCUACUACCUCA,0.00138 ± 0.0056

# — the supplement of paper PMC10338343
